From ChEMBL document CHEMBL3988442, “University of Dundee, Small-Polar-MMV Screening Library” (2021).

Sequences of proteins named here, by UniProt entry; tags and fusion partners are left off. Residues count along the entry.
UniProt A4I591, 1-473: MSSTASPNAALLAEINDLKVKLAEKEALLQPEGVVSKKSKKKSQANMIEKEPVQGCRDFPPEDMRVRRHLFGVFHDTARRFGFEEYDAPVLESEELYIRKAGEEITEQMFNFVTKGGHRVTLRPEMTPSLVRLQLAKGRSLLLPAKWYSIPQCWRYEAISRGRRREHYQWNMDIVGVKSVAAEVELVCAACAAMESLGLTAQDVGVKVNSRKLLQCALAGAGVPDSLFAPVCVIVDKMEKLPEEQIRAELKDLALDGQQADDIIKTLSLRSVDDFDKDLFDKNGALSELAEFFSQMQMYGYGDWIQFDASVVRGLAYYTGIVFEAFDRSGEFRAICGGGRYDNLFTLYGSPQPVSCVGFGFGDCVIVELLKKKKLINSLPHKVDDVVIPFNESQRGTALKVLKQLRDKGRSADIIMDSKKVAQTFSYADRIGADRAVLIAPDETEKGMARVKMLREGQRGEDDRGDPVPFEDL
UniProt P9WFT3, whole entry: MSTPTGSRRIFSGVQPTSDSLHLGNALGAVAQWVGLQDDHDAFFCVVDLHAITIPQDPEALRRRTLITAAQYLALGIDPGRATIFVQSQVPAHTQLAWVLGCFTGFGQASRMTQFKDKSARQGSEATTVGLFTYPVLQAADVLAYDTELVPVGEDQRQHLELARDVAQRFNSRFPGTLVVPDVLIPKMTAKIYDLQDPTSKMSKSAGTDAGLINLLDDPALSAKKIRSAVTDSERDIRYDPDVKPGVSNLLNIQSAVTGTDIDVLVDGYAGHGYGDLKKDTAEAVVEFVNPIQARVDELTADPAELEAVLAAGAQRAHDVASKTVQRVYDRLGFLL

LiHisRS: 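Histidine-tRNA ligase, Leishmania infantum (UniProt A4I591). Enzyme assay of histidyl-tRNA synthetase; the read-out is not stated. Concentration: 30 µM. The record gives no direction; compounds that gave an IC50 in retests scored well above the rest, so higher reads as stronger inhibition. The assay is labelled LdHisRS but filed under L. infantum. About 69,000 compounds were tested under these conditions; 0.6% (about 410) showed 50% or more at least once.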
T. brucei: 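Whole-parasite assay of Trypanosoma brucei over 72 hours; the read-out is not stated. Concentration: 30 µM. Higher reads as stronger inhibition (inferred: compounds with an IC50 in retests scored well above the rest). Values scatter widely below zero; nearly all retest evidence comes from the higher of the two concentrations used. About 64,000 compounds were tested under these conditions; 1.5% (about 940) showed 50% or more at least once.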
MtTrpRS: 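Tryptophan-tRNA ligase, Mycobacterium tuberculosis (UniProt P9WFT3). Enzyme assay of tryptophanyl-tRNA synthetase; the read-out is not stated. Concentration: 10 µM. Direction is not recorded; retested compounds ran higher, which suggests that high means inhibition. Of about 65,000 compounds tested this way, about 64 (0.098%) reached 50% or more in at least one test.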

Each number is a percent effect as filed. How 0% and 100% were set is not recorded. Most values in the screen are low, and negative values occur. Compounds were drawn at random from those tested, without regard to their results.

Result for CS(=O)(=O)NC1CCN(Cc2coc(-c3ccccc3)n2)CC1 was LiHisRS: 15.56%; T. brucei: -70.48%; MtTrpRS: 5.592%.
Result for COc1cccc(CC(=O)N2CCCC(c3n[nH]c4nccnc34)C2)c1 (stereo unspecified) was LiHisRS: 9.375%; T. brucei: 4.566%.
Result for c1ncc2c(n1)CN(CC1CCCCO1)CC2 (stereo unspecified) was LiHisRS: 42.86%; T. brucei: -4.278%; MtTrpRS: 11.42%.
Result for O=C(NCc1nnnn1-c1ccccc1)c1ccc(C2CCCO2)s1 (stereo unspecified) was LiHisRS: 27.06%; T. brucei: -7.439%; MtTrpRS: 3.028%.
Result for COCC(=O)N1CCN(C(C)=O)C[C@@H]1C(=O)OC was LiHisRS: -6.757%; T. brucei: -44.84%; MtTrpRS: 4.932%.
Result for CC(C)CCN1C2(CCN(C(=O)N(C)C)C2)c2ccccc2S1(=O)=O (stereo unspecified) was LiHisRS: 6.944%; T. brucei: -2.7%; MtTrpRS: -4.876%.
Result for CSc1ncc(CNCC2(N3CCCCC3)Cc3ccccc3C2)cn1 was LiHisRS: 5.479%; T. brucei: -35.53%; MtTrpRS: -2.974%.
Result for Cc1cc(N2CCN(Cc3cn(C)nc3C)CC2)cc(C2CCCN2)n1 (stereo unspecified) was LiHisRS: 13.04%; MtTrpRS: -5.114%.
Result for O=C(CC1CCCC1)N1CCN2C[C@@H](CO)[C@H](c3ccccc3)[C@H]2C1 was LiHisRS: -6.122%.
Result for Cc1ccc(CN(C)C(=O)c2cnsn2)cc1 was LiHisRS: 12.2%; T. brucei: -21.68%; MtTrpRS: -1.039%.
Result for CSC(C)(C)CNC(=O)NC1CCN(CC2CC2)C1 (stereo unspecified) was LiHisRS: 8.036%; T. brucei: -28.17%; MtTrpRS: 3.693%.
Result for CC(Cn1cccn1)NC(=O)N1CCC(NS(C)(=O)=O)CC1 (stereo unspecified) was LiHisRS: 8.547%; T. brucei: -7.051%; MtTrpRS: -0.3569%.
Result for O=C(COCc1ccccc1)N1CCCn2cncc2C1 was LiHisRS: 14.75%; T. brucei: 10.35%; MtTrpRS: 0.4831%.
Result for Cc1cc(N)nc(C2(C)CCCN2C(=O)c2cnccn2)n1 (stereo unspecified) was LiHisRS: 0%; T. brucei: -37.7%.
Result for COCCN1CC2(CCN(C(=O)c3ccno3)CC2)c2ccccc21.O=C(O)C(F)(F)F was T. brucei: -10.25%.
Result for Cn1cc(N)c(-c2nnc3n2CCCC3)n1 was LiHisRS: 10.31%; T. brucei: -14.13%.
Result for CC(=O)c1ccc(N2CCN(C(=O)c3cnn4c3OCCC4)CC2)cc1 was LiHisRS: -17.98%; T. brucei: -6.425%; MtTrpRS: 2.494%.
Result for CC(OCC1CC1)C(=O)Nc1ncccc1I (stereo unspecified) was LiHisRS: 11.39%; T. brucei: 2.573%; MtTrpRS: -1.613%.
Result for O=C(O)C(F)(F)F.c1ccc(N2CCCC3(CCN(Cc4ccsc4)C3)C2)nc1 (stereo unspecified) was T. brucei: -26.52%.
Result for CN(Cc1ccoc1)C(=O)CN1C(=O)OC(C)(C)C1=O was LiHisRS: 25%; T. brucei: -53.93%; MtTrpRS: -5.353%.
Result for Nc1c(Cl)cnn1C1CCN(Cc2ccccc2)C1 (stereo unspecified) was LiHisRS: 9.677%; T. brucei: -12.04%; MtTrpRS: -2.938%.
Result for CS(=O)(=O)c1cccc(OCC(=O)N2CCCC2c2ccc[nH]2)c1 (stereo unspecified) was LiHisRS: 7.317%; T. brucei: -21.21%; MtTrpRS: -0.5939%.
Result for CSc1ccc(C(=O)N2CCOCC2c2c(C)nn(C)c2C)o1 (stereo unspecified) was LiHisRS: 21.15%; MtTrpRS: -3.046%.
Result for COc1cc(NC(=O)c2ccc(Cl)cc2F)c(C(=O)N(C)C)cc1OC was LiHisRS: 11.61%; T. brucei: 10.03%; MtTrpRS: 2.534%.
Result for Cc1nc(CN2CCOCC3(CCN(c4ncccn4)C3)C2)cs1.O=C(O)C(F)(F)F.O=C(O)C(F)(F)F (stereo unspecified) was T. brucei: -0.5992%.
Result for Cc1ccc(N2CC3(COCCN(Cc4ccncc4)C3)OCC2=O)s1.O=C(O)C(F)(F)F.O=C(O)C(F)(F)F (stereo unspecified) was T. brucei: -15.15%.
Result for Cl.Cl.O=C([C@@H]1CSCN1)N1CCC2(CC1)CNCc1ccccc12 was T. brucei: -34.36%.
Result for COCc1c(C(=O)NC2CCCC2)nnn1-c1ccc(C)cc1 was LiHisRS: 2.857%; T. brucei: 17.42%; MtTrpRS: 2.583%.
Result for CC(C)n1ccnc1C1CCCN(c2ccnc3ccccc23)C1 (stereo unspecified) was LiHisRS: 20.39%; T. brucei: 44.45%; MtTrpRS: 1.421%.
Result for Cc1ccc(CN(Cc2ccccn2)C(=O)C2CCCCCN2C)s1 (stereo unspecified) was LiHisRS: 1.6%; T. brucei: -46.12%; MtTrpRS: -1.505%.
Result for Cc1nnc(NC(=O)C2CSCN2C(=O)C2CCCC2)s1 (stereo unspecified) was LiHisRS: 24.29%; T. brucei: -8.191%; MtTrpRS: 5.054%.
Result for Cc1ccc(CNC(=O)NCc2cccnc2N(C)C)s1 was LiHisRS: 13.7%; T. brucei: 8.662%; MtTrpRS: -4.556%.
Result for CN(C)S(=O)(=O)N1CCN(C(=O)c2ccc3ccn(C)c3c2)CC1 was LiHisRS: 9.524%; T. brucei: -1.185%; MtTrpRS: -1.253%.
Result for O=C(CN1CCN(c2nccs2)CC1)Nc1cccnc1 was LiHisRS: 10.71%; T. brucei: -2.347%; MtTrpRS: -7.319%.
Result for Cc1ccsc1-c1nc(CN(C)Cc2noc(C(C)C)n2)c(C)o1 was LiHisRS: 7.292%; T. brucei: 27.81%; MtTrpRS: -4.608%.
Result for CCCOc1ccc(NC(=O)NCCC(=O)N(C)C)cc1Cl was LiHisRS: 21.15%; T. brucei: -80.54%; MtTrpRS: 4.49%.
Result for CN(C)Cc1ccnc(C2CCCN2Cc2cccc(F)c2F)n1 (stereo unspecified) was LiHisRS: 16.49%; T. brucei: 0.8139%.
Result for CCC1(C(=O)O)CCCN(C(=O)c2ccc(N3CCN(C)CC3)cc2)C1 (stereo unspecified) was LiHisRS: 11.67%; T. brucei: -16.41%; MtTrpRS: 10.87%.
Result for Cc1cccc(CNC(=O)CC2CCN(S(C)(=O)=O)CC2)n1 was LiHisRS: 8.571%; T. brucei: -13.52%; MtTrpRS: -5.426%.
Result for O=C(Cn1ccc2sccc2c1=O)NCc1ccc2c(c1)OCO2 was LiHisRS: 18.45%; T. brucei: 16.58%; MtTrpRS: 1.433%.
Result for Cc1nc(CNCC(C)c2nc3ccccc3o2)cs1 (stereo unspecified) was LiHisRS: 15.32%; T. brucei: 7.044%; MtTrpRS: -3.419%.
Result for CC(c1cccnc1)N(C)Cc1csc(-c2ccccn2)n1 (stereo unspecified) was LiHisRS: 11.54%; T. brucei: -39.24%; MtTrpRS: -1.354%.
Result for CN(C)CCOCC1CN(Cc2ccoc2)Cc2nnn(C)c21 (stereo unspecified) was LiHisRS: 14.55%; MtTrpRS: 2.616%.